# PubChem BioAssay AID248 (DTP/NCI, 2004)
# The list shows only some results of the screen, not a fair sample: it gathers tests that were run many times, whatever their T/C, doses with no T/C, and many T/C values between a quarter and a half above the control. Further doses and runs are listed elsewhere. T/C gives the treated animals as a percentage of the vehicle group. Some entries give survivors of the animals treated and no T/C: the source files T/C as zero there, which appears to mark a toxic dose or a test without result, not a measured value. Some survivor counts are full or nearly so, which does not show that the dose was tolerated: survival well below the control is almost never listed, so the zero probably covers shortened survival too. Counts of survivors are from the toxicity check (mostly the fifth day) where no day follows; animals may have died later. Schedule codes are those of the source, read here as Q, the interval in days (D) or hours (H), X, the number of doses. Some schedules carry Z or #; the key to these is not given. Where survival is the endpoint, this PubChem deposit counts one and a half times the control or more as active, and values a quarter to a half above the control carry no call in these data; other NCI protocols may use other cut-offs.
# Test system: L1210 leukemia ip in BDF1 mice, survival T/C
# Test: NCI In Vivo Anticancer Drug Screen. Data for tumor model L1210 Leukemia (intraperitoneal) in B6D2F1 (BDF1) mice
# Details: T/C endpoint: mean survival time, higher T/C = longer survival
# [1] = dose: 200.0 mg/kg/injection, schedule: Q01DX009 (ip), vehicle: Klucel (hydroxypropylcellulose) (HPC)
# [2] = dose: 400.0 mg/kg/injection, schedule: Q01DX009 (ip), vehicle: Klucel (hydroxypropylcellulose) (HPC)
# [3] = dose: 200.0 mg/kg/injection, schedule: Q04DX003 (ip), vehicle: Klucel (hydroxypropylcellulose) (HPC)
# [4] = dose: 400.0 mg/kg/injection, schedule: Q04DX003 (ip), vehicle: Klucel (hydroxypropylcellulose) (HPC)
# [5] = dose: 200.0 mg/kg/injection, schedule: Q04DX003 (ip), vehicle: saline
# [6] = dose: 300.0 mg/kg/injection, schedule: Q01DX001 (ip), vehicle: saline
# [7] = dose: 50.0 mg/kg/injection, schedule: Q01DX009 (ip), vehicle: Klucel (hydroxypropylcellulose) (HPC)
# [8] = dose: 400.0 mg/kg/injection, schedule: Q01DX009 (ip), vehicle: saline
# [9] = dose: 400.0 mg/kg/injection, schedule: Q01DX001 (ip), vehicle: saline
smiles,measurement,setting,value
CCCOC1=C(Br)C(=O)c2ccccc2C1=O,survivor count,"dose: 60.0 mg/kg/injection, schedule: Q01DX001 (ip), vehicle: carboxymethylcellulose (CMC)",1 of 6
same,survivor count,"dose: 75.0 mg/kg/injection, schedule: Q01DX001 (ip), vehicle: carboxymethylcellulose (CMC)",0 of 6
same,survivor count,"dose: 150.0 mg/kg/injection, schedule: Q01DX001 (ip), vehicle: carboxymethylcellulose (CMC)",2 of 6
same,survivor count,"dose: 300.0 mg/kg/injection, schedule: Q01DX001 (ip), vehicle: carboxymethylcellulose (CMC)",1 of 6
COC1=C(N)C(=O)c2ncccc2C1=O,survivor count,"dose: 32.0 mg/kg/injection, schedule: Q01DX009 (ip), vehicle: acetone",0 of 6
COc1ccccc1-n1c(O)c(N=Nc2ccc(Br)cc2)c(=O)n(-c2ccc(Cl)cc2)c1=S,survivor count,"dose: 400.0 mg/kg/injection, schedule: Q01DX001 (ip), vehicle: Klucel (hydroxypropylcellulose) (HPC)",2 of 6
Nc1nc(N)c(CCCCc2ccccc2)c(C=O)n1,survivor count,[1],5 of 6
same,survivor count,[2],1 of 6
O=[N+]([O-])c1ccc2nocc2c1,survivor count,[3],0 of 3
same,survivor count,[4],0 of 3
CC(=NC1CCCCC1)Nc1ccc(NC(=O)c2ccc(C(=O)Nc3ccc(NC(C)=NC4CCCCC4)cc3)cc2)cc1,survivor count,"dose: 120.0 mg/kg/injection, schedule: Q01DX Z (ip), vehicle: carboxymethylcellulose (CMC)",6 of 6
CCCC(=O)N1C(C)CCC1C (configuration not stated),T/C,"dose: 400.0 mg/kg/injection, schedule: Q04DX002 (ip), vehicle: saline with Tween-80",127 % of control
O=C1C=CC(=C(Br)Br)O1,survivor count,"dose: 50.0 mg/kg/injection, schedule: Q04DX003 (ip), vehicle: saline with Tween-80",3 of 3
same,survivor count,[5],0 of 3
same,survivor count,"dose: 400.0 mg/kg/injection, schedule: Q04DX003 (ip), vehicle: saline",0 of 3
CCCCCCCCCCCCCCCCC/C=N\N=C(N)N,survivor count,"dose: 240.0 mg/kg/injection, schedule: Q01DX Z (ip), vehicle: carboxymethylcellulose (CMC)",3 of 6
same,survivor count,"dose: 480.0 mg/kg/injection, schedule: Q01DX Z (ip), vehicle: carboxymethylcellulose (CMC)",1 of 6
O=C(NCCc1ccc(S(=O)(=O)Nc2ccc(N=Nc3ccc(N=Nc4ccccc4)cc3)cc2)cc1)C(N1CC1)(N1CC1)N1CC1,survivor count,"dose: 60.0 mg/kg/injection, schedule: Q01DX001 (ip), vehicle: saline",0 of 6
same,survivor count,"dose: 75.0 mg/kg/injection, schedule: Q01DX001 (ip), vehicle: saline",2 of 6
same,survivor count,"dose: 150.0 mg/kg/injection, schedule: Q01DX001 (ip), vehicle: saline",0 of 6
same,survivor count,[6],0 of 6
N#CCc1ccc([N+](=O)[O-])cc1,survivor count,[7],2 of 6
same,survivor count,"dose: 100.0 mg/kg/injection, schedule: Q04DX003 (ip), vehicle: Klucel (hydroxypropylcellulose) (HPC)",0 of 6
same,survivor count,[3],0 of 6
same,survivor count,[4],0 of 6
C[Si](C)(O[Si](C)(C)c1ccccc1)c1ccccc1,survivor count,[8],3 of 6
O=C(CF)CCl,survivor count,"dose: 7.0 mg/kg/injection, schedule: Q01DX009 (ip), vehicle: saline",0 of 6
same,survivor count,"dose: 14.0 mg/kg/injection, schedule: Q01DX009 (ip), vehicle: saline",3 of 6
same,survivor count,"dose: 28.0 mg/kg/injection, schedule: Q01DX009 (ip), vehicle: saline",0 of 6
same,survivor count,"dose: 56.0 mg/kg/injection, schedule: Q04DX003 (ip), vehicle: saline",0 of 6
O=C1NC(c2ccccc2)C(=O)N1CCN(CCCl)CCCl (configuration not stated),survivor count,"dose: 25.0 mg/kg/injection, schedule: Q01DX009 (ip), vehicle: saline",3 of 6
same,survivor count,"dose: 50.0 mg/kg/injection, schedule: Q04DX003 (ip), vehicle: saline",6 of 6
same,survivor count,"dose: 100.0 mg/kg/injection, schedule: Q04DX003 (ip), vehicle: saline",3 of 6
same,survivor count,[5],1 of 6
COc1ccc(CC(N)C(=O)OC(C)C)cc1N(CCCl)CCCl (configuration not stated),survivor count,"dose: 12.5 mg/kg/injection, schedule: Q01DX001 (ip), vehicle: saline",3 of 6
same,survivor count,"dose: 25.0 mg/kg/injection, schedule: Q01DX001 (ip), vehicle: saline",0 of 6
same,survivor count,"dose: 50.0 mg/kg/injection, schedule: Q01DX001 (ip), vehicle: saline",0 of 6
same,survivor count,"dose: 100.0 mg/kg/injection, schedule: Q01DX001 (ip), vehicle: saline",0 of 6
same,survivor count,"dose: 200.0 mg/kg/injection, schedule: Q01DX001 (ip), vehicle: saline",0 of 6
same,survivor count,[9],0 of 6
CNC(=O)Nc1nc2ccccc2[nH]1,T/C,"dose: 400.0 mg/kg/injection, schedule: Q04DX003 (ip), vehicle: saline with Tween-80",127 % of control
O=C1C(Br)=C(Br)c2ccccc21,survivor count,"dose: 200.0 mg/kg/injection, schedule: Q01DX001 (ip), vehicle: carboxymethylcellulose (CMC)",1 of 4
same,survivor count,"dose: 400.0 mg/kg/injection, schedule: Q01DX001 (ip), vehicle: carboxymethylcellulose (CMC)",2 of 4
CCC(C)C(CCN(C)C)(CNC(=O)CN(CC)CC)c1cccc2ccccc12 (configuration not stated),survivor count,[8],0 of 6
O=C(O)CC(CO)C(c1ccccc1)c1ccccc1 (configuration not stated),survivor count,"dose: 400.0 mg/kg/injection, schedule: Q04DX002 (ip), vehicle: Klucel (hydroxypropylcellulose) (HPC)",1 of 3
CC[N-]c1nncs1.CC[N-]c1nncs1.CC[N-]c1nncs1.CC[N-]c1nncs1.[Cl][Rh][Cl],survivor count,"dose: 200.0 mg/kg/injection, schedule: Q04DX003 (ip), vehicle: distilled water + Tween-80",1 of 6
Cc1cc(N(CCCl)CCCl)ccc1N=Nc1ccccc1C(=O)[O-].Cc1cc(N(CCCl)CCCl)ccc1N=Nc1ccccc1C(=O)[O-].[Cu+2],survivor count,"dose: 7.5 mg/kg/injection, schedule: Q01DX015 (ip), vehicle: carboxymethylcellulose (CMC)",4 of 6
same,survivor count,"dose: 15.0 mg/kg/injection, schedule: Q01DX015 (ip), vehicle: carboxymethylcellulose (CMC)",6 of 6
same,survivor count,"dose: 30.0 mg/kg/injection, schedule: Q01DX015 (ip), vehicle: carboxymethylcellulose (CMC)",0 of 6
same,survivor count,"dose: 60.0 mg/kg/injection, schedule: Q01DX015 (ip), vehicle: carboxymethylcellulose (CMC)",0 of 6
NC(Cn1ccc(=O)c(O)c1)C(=O)O (configuration not stated),survivor count,[8],3 of 6
same,survivor count,"dose: 1200.0 mg/kg/injection, schedule: Q01DX009 (ip), vehicle: saline",4 of 6
same,survivor count,"dose: 1600.0 mg/kg/injection, schedule: Q01DX009 (ip), vehicle: saline",2 of 6
On1cnc(=S)c2[nH]cnc21,T/C,"dose: 375.0 mg/kg/injection, schedule: Q01DX Z (ip), vehicle: carboxymethylcellulose (CMC)",133 % of control
same,T/C,"dose: 500.0 mg/kg/injection, schedule: Q01DX Z (ip), vehicle: carboxymethylcellulose (CMC)",125 % of control
O=C(O)c1ccc(OCCOc2ccccc2)cc1,T/C,"dose: 100.0 mg/kg/injection, schedule: Q04DX003 (ip), vehicle: saline sonified",127 % of control
Cc1n[nH]c(C)c1C(C)C,survivor count,[9],1 of 4
COc1cc(C=C(C#N)C#N)ccc1O,survivor count,[7],2 of 6
same,survivor count,"dose: 100.0 mg/kg/injection, schedule: Q01DX009 (ip), vehicle: Klucel (hydroxypropylcellulose) (HPC)",0 of 6
same,survivor count,[1],0 of 6
same,survivor count,[2],0 of 6
Nc1nc2ncc(CNc3ccc(CC(=O)NC(CCC(=O)O)C(=O)O)cc3)nc2c(=O)[nH]1 (configuration not stated),survivor count,[6],0 of 6
